Data on four substances can be found in paper PMC10580122.

By UniProt entry, the sequences of proteins in these tests, tags left out. Where a name states a change or a piece, a line headed by the entry shows the natural chain unless it says otherwise. Residues count along the entry.
UniProt Q99665: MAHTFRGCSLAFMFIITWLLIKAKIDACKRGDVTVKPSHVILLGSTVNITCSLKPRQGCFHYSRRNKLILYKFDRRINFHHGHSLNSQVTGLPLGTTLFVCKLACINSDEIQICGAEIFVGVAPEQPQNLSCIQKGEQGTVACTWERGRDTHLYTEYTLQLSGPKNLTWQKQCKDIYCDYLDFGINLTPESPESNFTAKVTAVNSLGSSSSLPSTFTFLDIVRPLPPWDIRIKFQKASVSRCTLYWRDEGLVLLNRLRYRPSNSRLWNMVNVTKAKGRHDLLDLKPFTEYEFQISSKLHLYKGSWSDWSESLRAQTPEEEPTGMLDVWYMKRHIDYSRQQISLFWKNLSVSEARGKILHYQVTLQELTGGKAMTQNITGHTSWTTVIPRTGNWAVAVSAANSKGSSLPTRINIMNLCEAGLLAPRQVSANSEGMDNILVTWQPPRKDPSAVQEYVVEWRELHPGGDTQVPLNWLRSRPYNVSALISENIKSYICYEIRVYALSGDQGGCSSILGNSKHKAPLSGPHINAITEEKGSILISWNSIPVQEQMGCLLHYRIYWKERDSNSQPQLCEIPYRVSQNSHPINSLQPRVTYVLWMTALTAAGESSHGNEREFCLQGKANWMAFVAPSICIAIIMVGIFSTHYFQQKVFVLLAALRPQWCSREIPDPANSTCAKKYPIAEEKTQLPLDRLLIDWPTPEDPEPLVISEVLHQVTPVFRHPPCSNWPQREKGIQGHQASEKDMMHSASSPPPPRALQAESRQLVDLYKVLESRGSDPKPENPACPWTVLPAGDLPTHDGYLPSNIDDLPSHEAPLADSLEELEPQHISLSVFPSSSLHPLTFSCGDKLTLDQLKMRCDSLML
recombinant human IL-12Rβ2: residues 24-622 of Q99665
UniProt P29459: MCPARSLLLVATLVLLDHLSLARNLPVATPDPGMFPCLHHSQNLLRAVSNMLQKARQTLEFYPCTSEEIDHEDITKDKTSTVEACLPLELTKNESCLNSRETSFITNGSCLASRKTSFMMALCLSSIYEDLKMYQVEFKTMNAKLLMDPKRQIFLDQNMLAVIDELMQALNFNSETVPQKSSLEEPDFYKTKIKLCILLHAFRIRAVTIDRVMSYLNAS
UniProt P29460, residues 23-328: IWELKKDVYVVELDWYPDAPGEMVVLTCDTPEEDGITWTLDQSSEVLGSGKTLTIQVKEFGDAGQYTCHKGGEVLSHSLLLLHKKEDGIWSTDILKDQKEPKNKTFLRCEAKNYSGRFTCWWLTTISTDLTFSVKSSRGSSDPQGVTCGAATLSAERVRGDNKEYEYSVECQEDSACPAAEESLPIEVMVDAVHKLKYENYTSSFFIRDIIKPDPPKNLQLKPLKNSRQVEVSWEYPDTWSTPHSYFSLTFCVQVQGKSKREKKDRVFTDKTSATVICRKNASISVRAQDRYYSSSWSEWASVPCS

Results are given in words; binding and its absence hold for the method and conditions named. For part of these data: Binding seen in cells or lysates may run through a third protein. Some entries that bind do so weakly or less than the wild type.

Assay [1] addresses recombinant human IL-12Rβ2 (human) (UniProt Q99665). Put plainly: ELISA; solid-phase binding assay; rIL-12Rβ2 coated on plate (5 μg/ml, 50 μl per well, PBS); variable concentrations of one cytokine with or without the other at a fixed 10 μg/ml; overnight at 4°C; bound cytokine detected with anti-IL-12 or anti-IL-35 and HRP; both purified. (In general: An ELISA detects its analyte on a solid surface through an enzyme-linked reagent.)

The target is the same in assay [2]. Put plainly: ELISA; solid-phase binding assay; wells coated with rIL-12Rβ1, rIL-12Rβ2 or no IL-12R chain; IL-12 or IL-12p40 monomer alone or with IL-35, each cytokine fixed at 5 μg/ml; overnight at 4°C; detected with anti-IL-12 or anti-IL-12p40 and HRP; both purified.
Assay [3] addresses Human IL-12 (human) (UniProt P29459+P29460). Put plainly: co-IP; reporter cells stimulated with IL-12 or IL-35 (150 ng/ml) for 10 min at 37°C, washed, lysed (50 mM Tris-HCl, NaCl, 1% Triton X-100); about 100 μg lysate incubated with anti-IL-12 or anti-IL-35 Ab overnight at 4°C; eluate blotted with anti-IL-12RB2; only the target purified.
Assay [4] concerns the target Human IL-35 (human) (UniProt P29459+Q14213). The description is as above.

Take “Human IL-12 (from UniProt P29459 23-219; P29460 23-328) (complex)”: the binding entry in assay [1] and in assay [2] was “binds” each time. Regarding “Human IL-35 (from UniProt P29459 23-219; Q14213 21-229) (complex)”, the binding result in assay [1] is listed as “binds”. For the substance “IL-12p40 monomer (from UniProt P29460 23-328)”, the binding entry in assay [2] is reported as “no binding (tested: 5 μg/ml)”. As to “human IL-12Rβ2 expressed in IL-12 bioactivity reporter cells (from UniProt Q99665 24-862) (receptor)”, the binding entry in assay [3] and in assay [4] was “binds” each time.
